Measured data: PubChem BioAssay AID1259425 (University of Nebraska Medical Center, 2018)
Test: 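Find knockdowns that reproduce the gene expression pattern seen when KSR1 is lost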 (primary screen). Cells: HCT116 human colon cancer cells. Reagents: siRNA pool against human genes, 50 nM siRNA. Read-out: 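After 50 nM siRNA pool, branched-DNA assay measures six marker transcripts per well, minus blank, normalised to the geometric mean of two housekeeping transcripts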. Scale: BNIP3L mRNA: higher = more BNIP3L transcript after knockdown; NDRG1 mRNA: higher = more NDRG1 transcript after knockdown; BNIP3 mRNA: higher = more BNIP3 transcript after knockdown; ALDOC mRNA: higher = more ALDOC transcript after knockdown; ACSL5 mRNA: higher = more ACSL5 transcript after knockdown.
The deposit covers about 14,000 reagents; this is a random part of them. The numbers tell different reagents against one gene apart. Not given: the time to read-out.

no.	Gene	reagent	BNIP3L mRNA, set 1	NDRG1 mRNA, set 1	BNIP3 mRNA, set 1	ALDOC mRNA, set 1	ACSL5 mRNA, set 1
1	ZCRB1 (GeneID 85437)	1	0.13	0.0973	0.251	0.06	0.337
2	ZNF541 (GeneID 84215)	1	0.145	0.147	0.178	0.0433	0.321
3	PPP1R12A (GeneID 4659)	1	0.0421	0.195	0.256	0.0313	0.213
4	SHROOM4 (GeneID 57477)	1	0.251	0.114	0.489	0.0685	0.222
5	SERPING1 (GeneID 710)	1	0.106	1.42	0.26	0.0382	0.373
6	SERTAD1 (GeneID 29950)	1	0.071	0.271	0.202	0.016	0.207
7	DSTN (GeneID 11034)	1	0.0616	0.247	0.247	0.0148	0.12
8	CDKN1A (GeneID 1026)	1	0.131	0.0521	0.273	0.00683	0.151
9	STRBP (GeneID 55342)	1	0.0924	0.0987	0.314	0.024	0.176
10	RPS6KB2 (GeneID 6199)	1	0.088	0.132	0.325	0.00293	0.259
11	RPS6KB2	2	0.062	0.227	0.258	0.0241	0.172
12	GTF2E1 (GeneID 2960)	1	0.0364	0.311	0.224	0.0219	0.15
13	MYD88 (GeneID 4615)	1	0.0661	0.0987	0.3	0.0371	0.262
14	PHF21A (GeneID 51317)	1	0.0459	0.103	0.246	0.0141	0.073
15	KLHL20 (GeneID 27252)	1	0.0615	0.218	0.157	0.0361	0.313
16	TPT1 (GeneID 7178)	1	0.083	0.154	0.362	0.0167	0.088
17	TAF5L (GeneID 27097)	1	0.0903	0.247	0.254	0.0208	0.159
18	SLC4A11 (GeneID 83959)	1	0.192	0.168	0.396	0.0498	0.227
19	UGT1A3 (GeneID 54659)	1	0.0746	0.0764	0.158	0.0145	0.102
20	BEX3 (GeneID 27018)	1	0.117	0.131	0.349	0.0332	0.158
21	VPS29 (GeneID 51699)	1	1.57	3.98	2.78	0.832	0.215
22	RPS26 (GeneID 6231)	1	0.0949	0.124	0.342	0.0184	0.0495
23	TCEAL1 (GeneID 9338)	1	0.0362	0.168	0.305	-0.0135	0.252
24	DSG2 (GeneID 1829)	1	0.138	0.0658	0.395	0.0134	0.0451
25	IL20 (GeneID 50604)	1	0.107	0.211	0.33	0.0203	0.124
26	GLE1 (GeneID 2733)	1	0.0534	0.21	0.296	0.0111	0.0949
27	THAP2 (GeneID 83591)	1	0.179	0.168	0.347	0.0669	0.231
28	POP4 (GeneID 10775)	1	0.0633	0.181	0.255	0.0209	0.1
29	SETX (GeneID 23064)	1	0.223	0.534	0.472	0.0364	0.145
30	SLC27A4 (GeneID 10999)	1	0.101	0.723	0.351	0.0212	0.195
31	SLC27A2 (GeneID 11001)	1	0.139	0.113	0.355	0.0635	0.194
32	TBL2 (GeneID 26608)	1	0.0846	0.275	0.19	0.0131	0.119
33	SFPQ (GeneID 6421)	1	0.172	0.402	0.147	0.0226	0.104
34	RBM15B (GeneID 29890)	1	0.107	0.238	0.378	0.0166	0.14
35	GFM2 (GeneID 84340)	1	0.113	0.124	0.183	0.0578	0.212
36	TBX6 (GeneID 6911)	1	0.155	0.131	0.25	0.0107	0.151
37	TIMCC (GeneID 84908)	1	0.669	0.704	0.327	0.473	1.04
38	SSNA1 (GeneID 8636)	1	0.175	0.371	0.256	0.0264	0.112
39	CASKIN1 (GeneID 57524)	1	0.115	0.121	0.186	0.0211	0.323
40	FASTK (GeneID 10922)	1	0.15	0.0809	0.424	0.00345	0.0868
41	ALDH2 (GeneID 217)	1	0.101	0.0394	0.271	0.02	0.149
42	MRPS28 (GeneID 28957)	1	0.061	0.217	0.341	0.0324	0.196
43	AGRN (GeneID 375790)	1	0.25	0.526	0.674	0.213	0.523
44	BAP1 (GeneID 8314)	1	0.0895	0.21	0.285	0.0618	0.123
45	CEBPA-DT (GeneID 80054)	1	0.079	0.0623	0.268	0.0134	0.0842
46	COA1 (GeneID 55744)	1	0.0984	0.167	0.245	0.00309	0.145
47	LZIC (GeneID 84328)	1	0.212	0.278	0.323	0.159	0.309
48	SEPTIN8 (GeneID 23176)	1	0.11	0.0976	0.3	0.019	0.209
49	LENG8 (GeneID 114823)	1	0.194	0.493	0.388	0.042	0.132
50	TRIM21 (GeneID 6737)	1	0.141	0.117	0.323	0.0328	0.0857
51	GLTP (GeneID 51228)	1	0.0509	0.0861	0.339	0.0037	0.151
52	WNT1 (GeneID 7471)	1	0.0667	0.135	0.215	0.0145	0.178
53	IGSF21 (GeneID 84966)	1	0.21	0.288	0.434	0.0767	0.232
54	VIT (GeneID 5212)	1	0.0925	0.208	0.243	0.039	0.0746
55	MMP15 (GeneID 4324)	1	0.155	0.842	0.326	0.0583	0.488
56	RNF141 (GeneID 50862)	1	0.0989	0.207	0.296	0.0467	0.264
57	SPANXA2 (GeneID 728712)	1	0.252	1.5	0.415	0.0337	0.239
58	CXCL16 (GeneID 58191)	1	0.071	0.27	0.344	0.0332	0.248
59	LMO4 (GeneID 8543)	1	0.0506	0.0636	0.211	0.00377	0.107
60	POLR2I (GeneID 5438)	1	0.0514	0.7	0.365	0.0323	0.23
61	INF2 (GeneID 64423)	1	0.0435	0.263	0.282	0.00952	0.345
62	INF2 (GeneID 64423)	2	0.129	0.131	0.21	0.0275	0.201
63	OR1G1 (GeneID 8390)	1	0.126	0.485	0.401	0.0264	0.129
